No constants are given. Whether binding was seen depends on the method and setting. For part of these data: In cells and extracts the contact can be indirect. Some entries that bind do so weakly or less than the wild type. Where a sequence is shown, tags or fusion partners need not be part of it. Each block holds one binder with its values, some of them ahead of it.
Assays:
[1] = target: T1, HA-SENP1 (sentrin-specific protease 1, full-length) (UniProt Q9P0U3); assay: co-IP; HEK-293T cells co-transfected with Flag-DAPK1 (or its mutants) and HA-SENP1 (or its truncated mutants); antibodies with cell lysates 3-6 h, protein A/G agarose 2-3 h at 4 °C, washed with NP-40 lysis buffer; immunoblot
T1 sequence: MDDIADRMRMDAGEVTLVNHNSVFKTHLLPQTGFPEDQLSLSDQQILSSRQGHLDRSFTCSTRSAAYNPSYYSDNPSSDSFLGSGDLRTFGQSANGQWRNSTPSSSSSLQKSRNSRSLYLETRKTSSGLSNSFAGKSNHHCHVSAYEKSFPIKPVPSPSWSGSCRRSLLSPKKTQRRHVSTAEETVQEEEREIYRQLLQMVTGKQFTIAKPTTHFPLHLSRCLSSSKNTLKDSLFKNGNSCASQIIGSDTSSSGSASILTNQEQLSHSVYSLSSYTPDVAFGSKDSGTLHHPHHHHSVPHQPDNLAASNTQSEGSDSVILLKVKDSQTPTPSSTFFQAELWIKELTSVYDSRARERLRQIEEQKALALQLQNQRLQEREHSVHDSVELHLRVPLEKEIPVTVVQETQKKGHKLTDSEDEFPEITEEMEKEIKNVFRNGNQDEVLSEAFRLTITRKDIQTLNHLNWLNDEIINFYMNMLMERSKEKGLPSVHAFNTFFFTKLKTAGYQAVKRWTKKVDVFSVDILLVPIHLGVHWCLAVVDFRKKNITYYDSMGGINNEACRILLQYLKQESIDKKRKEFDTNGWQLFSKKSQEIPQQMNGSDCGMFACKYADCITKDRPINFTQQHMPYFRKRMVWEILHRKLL

GST-SENP1 [2] = target: T2, GST-SENP1 (UniProt Q9P0U3); assay: pull-down; supernatants of transfected HEK-293T cells incubated with purified GST fusion proteins from E. coli about 2 h at 4 °C, then glutathione-agarose beads 2 h at 4 °C; washed with lysis buffer; immunoblot (anti-Myc or anti-Flag); only the target purified
T2 sequence: T1 sequence

GST-SENP1 [3] = target: T2, GST-SENP1; assay: pull-down; purified His-DAPK1 (848–1288 aa) incubated with GST or GST-SENP1 proteins; immunoblot with an anti-His antibody; both purified

- binding [1]: binds
- binding (GST-SENP1 [2]): binds
B1: Flag-DAPK1 (848–1288 aa) (domain or fragment, UniProt P53355 848-1288)
chain: IQLNQVIFWLSFLKSLVPVEEPIAFGGKLKNPLQVVLVATHADIMNVPRPAGGEFGYDKDTSLLKEIRNRFGNDLHISNKLFVLDAGASGSKDMKVLRNHLQEIRSQIVSVCPPMTHLCEKIISTLPSWRKLNGPNQLMSLQQFVYDVQDQLNPLASEEDLRRIAQQLHSTGEINIMQSETVQDVLLLDPRWLCTNVLGKLLSVETPRALHHYRGRYTVEDIQRLVPDSDVEELLQILDAMDICARDLSSGTMVDVPALIKTDNLHRSWADEEDEVMVYGGVRIVPVEHLTPFPCGIFHKVQVNLCRWIHQQSTEGDADIRLWVNGCKLANRGAELLVLLVNHGQGIEVQVRGLETEKIKCCLLLDSVCSTIENVMATTLPGLLTVKHYLSPQQLREHHEPVMIYQPRDFFRAQTLKETSLTNTMGGYKESFSSIMCFGCH

- binding (GST-SENP1 [3]): binds
B2: His-DAPK1 (848–1288 aa) (domain or fragment, UniProt P53355 848-1288)
chain: B1 chain
